Results deposited as PubChem BioAssay AID686943 (Drosophila RNAi Screening Center, 2013)
The deposit covers about 23,000 reagents; below is a random part of those that have a named target and a result. 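Extra replicates exist only for a retested subset of genes; insulin dose and duration not given; both raised and lowered dpERK matter.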 Names joined by + are all predicted targets of the reagent. No sequences are given here. The record does not give: the amount of reagent, the time to read-out.

- Aim: 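Search across the genome for regulators of signalling from receptor tyrosine kinase to ERK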 (primary screen)
- Cells: Drosophila S2R+ haemocyte-like cells expressing YFP-tagged ERK (Rolled)
- Knock-down reagent: long dsRNA against Drosophila genes
- Treatment: insulin stimulation versus unstimulated cells; dose and duration not given
- Detection: 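Per-plate z-scores of phospho-ERK immunostaining normalised to YFP-tagged ERK, measured with and without insulin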
- Reading the numbers: replicate 1, z-score of dpERK with insulin and replicate 2, z-score of dpERK with insulin: higher = more active ERK per ERK-YFP after insulin; replicate 1, z-score of dpERK under basal conditions: higher = more basal active ERK per ERK-YFP; replicate 1, z-score of ERK-YFP with insulin: higher = more YFP-tagged ERK signal

no.	Target gene	dsRNA	replicate 1, z-score of dpERK with insulin	replicate 2, z-score of dpERK with insulin	replicate 1, z-score of dpERK under basal conditions	replicate 1, z-score of ERK-YFP with insulin
1	sff (sugar-free frosting)	DRSC10590	-0.03	0.23	0.63	0.55
2	FipoQ (F-box involved in polyQ pathogenesis)	DRSC15413	-1.03	-0.32	-0.17	0.64
3	yip2 (yippee interacting protein 2)	DRSC03640	0.93	-0.53	0.3	0.47
4	Grl43a (Gustatory receptor-like 43a)	DRSC06383	-0.79	-1.18	-0.7	-0.49
5	RpL6 (Ribosomal protein L6)	DRSC14323	-2.36	1.4	-0.97	-2.38
6	RpL6 (Ribosomal protein L6)	DRSC22384	-0.69	-1.32	5.28	-3.69
7	DNAlig1 (DNA ligase 1)	DRSC04518	-0.09	-0.49	-1.52	-1.88
8	Mvb12 (Multivesicular body subunit 12)	DRSC20027	-0.36	-0.68	0.04	0.52
9	CG34202	DRSC05907	3.68	4.4	1.97	-4.3
10	gammaSnap1 (gamma Soluble NSF attachment protein 1)	DRSC04686	0.74	0.16	0.61	-1.26
11	babos	DRSC03923	0.6	-0.28	0.51	-0.58
12	babos	DRSC04397	-0.69	0.63	1.07	0.3
13	CG42857	DRSC12750	-0.07	-0.11	-0.61	-0.44
14	GluRIIB (Glutamate receptor IIB)	DRSC03335	-0.49	-1.29	-0.13	0.98
15	CG14147	DRSC10149	1.05	-0.21	-0.26	-0.09
16	CG31213	DRSC14312	-0.07	0.24	0.42	0.62
17	CG31213	DRSC15647	-0.58	0.44	0.16	0.8
18	dysc (dyschronic)	DRSC10273	1.15	1.32	0.56	0.05
19	dysc (dyschronic)	DRSC11040	-0.25	0.27	-0.73	0.37
20	dysc (dyschronic)	DRSC22334	0.2	-0.03	1.24	0.36
21	dysc (dyschronic)	DRSC22437	0.1	0.69	-1.49	1.45
22	dysc (dyschronic)	DRSC22824	-0.38	-0.44	-0.57	-0.45
23	CG18327	DRSC06722	-0.37	0.09	0.02	0.83
24	CG10973	DRSC09813	0.2	-0.57	2.11	1.57
25	TwdlV (TweedleV)	DRSC12226	0.01	-0.81	0.21	-0.33
26	blo (bloated)	DRSC05937	-0.16	0.04	-0.46	0.52
27	sisA	DRSC20374	-0.03	0.41	1.11	-0.06
28	CG5347	DRSC19942	0.72	0.19	0.36	0.46
29	wit (wishful thinking)	DRSC08741	-0.12	-0.13	-0.31	-0.03
30	out (outsiders)	DRSC19347	1.22	0.02	0.96	-0.02
31	CG17732	DRSC10283	0.53	0.52	2.31	-0.13
32	CG5098	DRSC06915	0.02	-0.12	0.37	0.12
33	fliI (flightless I)	DRSC20578	2.26	1.97	-0.27	-0.71
34	Tango10 (Transport and Golgi organization 10)	DRSC19807	1.84	4.4	0.46	-1.57
35	ND-B8 (NADH dehydrogenase (ubiquinone) B8 subunit)	DRSC00449	-0.49	0.17	-0.18	-0.07
36	CG17364	DRSC10269	-0.83	1.15	-0.47	1.34
37	CG17364	DRSC10270	-0.06	1.59	1.91	-0.37
38	CG17364	DRSC22689	-0.6	2	0.98	1.42
39	CG14853	DRSC14977	1.16	0.69	-2.97	-0.31
40	CG14853	DRSC21528	0.18	1.37	-0.25	0.62
41	Hem (HEM-protein)	DRSC11865	-0.02	0.25	1.22	-4.83
42	Rsph1 (Radial spoke head protein 1)	DRSC02864	0.21	-0.04	-1.12	0.06
43	CCT8 (Chaperonin containing TCP1 subunit 8)	DRSC07130	0.04	0.22	-0.6	0.14
44	CG5080	DRSC00677	-0.15	-0.58	0.94	-0.33
45	CSN3 (COP9 signalosome subunit 3)	DRSC11859	-1.07	0.19	0.56	-0.31
46	Prdm13 (PR/SET domain 13)	DRSC09970	-0.14	-0.13	-0.74	0.38
47	w (white)	DRSC17233	-0.07	0.85	0.54	0.99
48	w (white)	DRSC18850	-0.65	-0.65	0.54	0.43
49	CG10348	DRSC02043	0.46	1.88	1.09	-0.62
50	CG10348	DRSC21908	-0.01	1.1	-1	0.66
51	Atg3 (Autophagy-related 3)	DRSC10736	0.84	0.5	-0.05	-0.04
52	Atg3 (Autophagy-related 3)	DRSC21758	0.34	-0.51	-0.39	0.12
53	sba (six-banded)	DRSC13643	-0.72	-2.11	-3.61	-1.65
54	sba (six-banded)	DRSC17050	0.91	0.13	0.8	0.55
55	CG3045	DRSC04331	0.4	0.07	0.34	0.24
56	mRpL33 (mitochondrial ribosomal protein L33)	DRSC18319	0.87	0.69	-0.94	0.5
57	Zasp67 (Z band alternatively spliced PDZ-motif protein 67)	DRSC10169	0.5	0.22	-1.59	0.21
58	RpS25 (Ribosomal protein S25)	DRSC16837	-0.04	0.15	1.03	-1.9
59	CG43740	DRSC17848	-1.31	-0.41	-1.16	-0.55
60	CG43740	DRSC17994	0.61	0.33	0.56	-0.27
61	CG4294	DRSC04460	-0.24	-0.53	-0.19	1.73
62	IntS9 (Integrator 9)	DRSC10493	0.27	-0.13	1.46	1.46
63	Met75Ca + Met75Cb	DRSC09549	1.19	1.32	1.86	0.22
64	Met75Ca + Met75Cb	DRSC11221	-0.16	0.43	-0.02	0.31
65	byn (brachyenteron)	DRSC11332	-0.08	0.18	0.2	0.24
66	GCS1 (Glucosidase 1)	DRSC19744	-0.13	0.14	-0.22	0.72
67	Cpr11A (Cuticular protein 11A)	DRSC19861	0.86	0.02	-0.09	0.15
68	Sar1 (Secretion-associated Ras-related 1)	DRSC17049	0.52	1.47	0.6	-0.49
69	Sar1 (Secretion-associated Ras-related 1)	DRSC22115	0.36	0.51	0.56	-2.35
70	ZnT63C (Zinc transporter 63C)	DRSC08032	-0.61	-0.79	-1.41	-0.39
71	ZnT63C (Zinc transporter 63C)	DRSC08033	-0.77	-0.66	-0.31	-0.25
72	ZnT63C (Zinc transporter 63C)	DRSC08519	1.3	0.43	0.59	0.24
73	ZnT63C (Zinc transporter 63C)	DRSC21989	-0.42	-0.8	-1.96	0.16
